PubChem BioAssay AID504786, Drosophila RNAi Screening Center | 2011
The screen tested about 21,000 reagents; below is an unselected part of those that have a named target and a result. 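Primary screen; positive scores mean lost reporter signal, so the sign may be inverted from the usual convention.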 Reagents against one gene are numbered here. A plus sign joins genes that one reagent is predicted to hit.

Assay: 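Knock-downs reducing HIF reporter induction by the iron chelator DFO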 (primary screen)
Cell system: Drosophila S2 cells with a stable HIF luciferase reporter
Reagent: long dsRNA against Drosophila genes, about 0.2 µg dsRNA per well of a 384-well plate
Duration: three days of knock-down, then 20 h of DFO before reading
Treatment: desferrioxamine (DFO) at 100 µM, an iron chelator that mimics hypoxia, for 20 h
Measurement: 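HIF reporter luminescence in cells given 100 µM DFO for 20 h, using the mouse ldh-a hypoxia-response element, scored as per-plate z-scores; higher means greater loss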
Scale: z-score: higher = stronger loss of HIF reporter signal

no.	gene	dsRNA no.	z-score, replicate 1	z-score, replicate 2	z-score, replicate 3	z-score, replicate 4
1	hkb (huckebein)	1	-0.3	-0.6		
2	CG18537	1	-0.3	-0.7		
3	Idgf6 (Imaginal disc growth factor 6)	1	-0.3	-0.3		
4	lin-28	1	0.4	0.1		
5	CG17267	1	0.4	0.1		
6	CG34238	1	-0.3	-0.4		
7	Cyp28c1 (Cytochrome P450 28c1)	1	-0.1	-0.7		
8	CG6356	1	-0.3	-0.2		
9	CG5646	1	-0.4	-0.4		
10	Kaz (Katazuke)	1	0	-0.4		
11	Osi23 (Osiris 23)	1	-0.4	0.1		
12	Zasp66 (Z band alternatively spliced PDZ-motif protein 66)	1	-0.4	0.6		
13	Zasp66 (Z band alternatively spliced PDZ-motif protein 66)	2	-0.2	-0.3		
14	Zasp66 (Z band alternatively spliced PDZ-motif protein 66)	3	-0.3	-0.3		
15	CG32727	1	-0.2	-0.2		
16	Sec63 (Secretory 63)	1	-0.3	-0.6	0.1	-0.1
17	shg (shotgun)	1	-0.3	-0.3		
18	l(3)mbt (lethal (3) malignant brain tumor)	1	-0.4	0.3		
19	CG34426	1	-0.1	-0.2		
20	CG13443	1	-0.3	-0.7		
21	flip (flippy)	1	-0.3	-0.4		
22	Hrb27C (Heterogeneous nuclear ribonucleoprotein at 27C)	1	-0.5	-1.4		
23	RabX2	1	-0.2	0	0.3	0
24	Ctr1B + Poxm	1	0.1	0.5		
25	CG4456 + Hsp22	1	-0.3	0		
26	CG4456 + Hsp22	2	-0.2	-0.6		
27	Ugt37C2 (UDP-glycosyltransferase family 37 member C2)	1	-0.2	0.1		
28	CG6628	1	-0.2	-0.3		
29	CG6290	1	-0.3	-0.6		
30	CG32536 + CG32537	1	-0.2	-0.2	-0.8	-0.4
31	CG1428	1	-0.4	-0.4		
32	CG1271	1	-0.2	0.2		
33	CG10140	1	-0.2	-0.9		
34	CG34326 (retired record)	1	-0.2	-0.4		
35	Lrch (Leucine-rich-repeats and calponin homology domain protein)	1	0	0		
36	CadN2 + CG42830	1	-0.3	-0.4		
37	CadN2 + CG42830	2	-0.4	-0.8		
38	CadN2 + CG42830	3	0	-0.4		
39	Zip71B (Zinc/iron regulated transporter-related protein 71B)	1	-0.3	-0.6		
40	Osi11 (Osiris 11)	1	-0.2	0.4		
41	CG4328	1	3.8	4.6		
42	kappaTry	1	-0.2	-0.4		
43	CG12655	1	-0.3	-0.4		
44	Ilp6 (Insulin-like peptide 6)	1	-0.3	-0.8		
45	crim (crimpled)	1	-0.3	-0.4		
46	CG12460 (retired record)	1	-0.4	-1.2		
47	nej (nejire)	1	-0.5	1.1		
48	nej (nejire)	2	0.6	0.7		
49	geminin	1	0	0		
50	Atg2 (Autophagy-related 2)	1	-0.2	-0.3		

6 neighbouring records already listed, quoted:
no.	gene	dsRNA no.	z-score, replicate 1	z-score, replicate 2	z-score, replicate 3	z-score, replicate 4
21	flip (flippy)	1	-0.3	-0.4		
22	Hrb27C (Heterogeneous nuclear ribonucleoprotein at 27C)	1	-0.5	-1.4		
23	RabX2	1	-0.2	0	0.3	0
24	Ctr1B + Poxm	1	0.1	0.5		
25	CG4456 + Hsp22	1	-0.3	0		
26	CG4456 + Hsp22	2	-0.2	-0.6		

Next reagents follow:
no.	gene	dsRNA no.	z-score, replicate 1	z-score, replicate 2	z-score, replicate 3	z-score, replicate 4
51	CG7309	1	-0.3	-0.6		
52	nompA (no mechanoreceptor potential A)	1	-0.4	-0.1		
53	CYTB (retired record)	1	-0.4	-0.2		
54	CG3309	1	-0.1	-0.2		
55	Cds (CDP-diacylglycerol synthase)	1	-0.2	0.1		
56	morgue (modifier of rpr and grim, ubiquitously expressed)	1	-0.2	-0.6		
57	Spn88Ea (Serpin 88Ea)	1	0	0.1		
58	Gpb5 (Glycoprotein hormone beta 5)	1	-0.5	-0.4		
59	Gyf (Gigyf)	1	-0.2	-0.5		
60	CG30089	1	-0.3	-0.4		
61	CG30089	2	6.3	4.7		
62	CG30089	3	-0.2	-0.3		
63	CG30089	4	-1.1	0.2		
64	sr (stripe)	1	-0.2	-0.2		
65	sr (stripe)	2	1	-0.8		
66	Rint1 (RAD50 interactor 1)	1	-0.5	-1.1		
67	Snx21 (Sorting nexin 21)	1	-0.3	-0.4		
68	ACXA (Adenylyl cyclase X A)	1	-0.3	-0.2		
69	CG30053	1	-0.4	-0.9		
70	CG18294	1	-0.3	-0.4		
71	CG15499 (retired record)	1	-0.1	-0.8		
72	CG33155 + mRpL53	1	1	1.7		
73	L2HGDH (L-2-hydroxyglutarate dehydrogenase)	1	-0.3	-0.5		
74	Rh5 (Rhodopsin 5)	1	-0.3	-0.2		
75	CG3706	1	-0.4	-0.3		
76	ave (aveugle)	1	0.3	0.1		
77	Ect3 (Ectoderm-expressed 3)	1	-0.3	-0.4		
78	GatC + PolG2	1	-0.2	-0.1		
79	CG32733 (retired record) + CG32797	1	1.1	0.9	1.7	0.9
80	CG42712 (retired record)	1	-0.2	0		
81	wls (wntless)	1	-0.3	-0.2		
82	hrg (hiiragi)	1	0.9	1.2		
83	pros (prospero)	1	-0.3	-0.2		
84	pros (prospero)	2	-0.1	-0.3		
